Measurements as given in patent US20030186419A1.
Results are given in words; binding and its absence hold for the method and conditions named. Some results given as binding are weak or reduced against the parent protein; the word gives no strength.

By UniProt entry, the sequences of proteins in these tests, tags left out. Where a name states a change or a piece, a line headed by the entry shows the natural chain unless it says otherwise. Chains listed by the source or under a name are the forms on record and can include a tag or linker. Residues count along the entry.
UniProt P11226, residues 21-248: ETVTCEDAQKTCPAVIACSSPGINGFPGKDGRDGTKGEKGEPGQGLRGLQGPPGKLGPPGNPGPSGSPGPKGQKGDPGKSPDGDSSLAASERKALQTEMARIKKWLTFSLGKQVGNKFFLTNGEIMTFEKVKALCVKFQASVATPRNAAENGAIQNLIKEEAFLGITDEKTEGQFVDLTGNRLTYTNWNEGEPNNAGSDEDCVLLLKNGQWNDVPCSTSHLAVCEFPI
UniProt P48740, residues 20-699: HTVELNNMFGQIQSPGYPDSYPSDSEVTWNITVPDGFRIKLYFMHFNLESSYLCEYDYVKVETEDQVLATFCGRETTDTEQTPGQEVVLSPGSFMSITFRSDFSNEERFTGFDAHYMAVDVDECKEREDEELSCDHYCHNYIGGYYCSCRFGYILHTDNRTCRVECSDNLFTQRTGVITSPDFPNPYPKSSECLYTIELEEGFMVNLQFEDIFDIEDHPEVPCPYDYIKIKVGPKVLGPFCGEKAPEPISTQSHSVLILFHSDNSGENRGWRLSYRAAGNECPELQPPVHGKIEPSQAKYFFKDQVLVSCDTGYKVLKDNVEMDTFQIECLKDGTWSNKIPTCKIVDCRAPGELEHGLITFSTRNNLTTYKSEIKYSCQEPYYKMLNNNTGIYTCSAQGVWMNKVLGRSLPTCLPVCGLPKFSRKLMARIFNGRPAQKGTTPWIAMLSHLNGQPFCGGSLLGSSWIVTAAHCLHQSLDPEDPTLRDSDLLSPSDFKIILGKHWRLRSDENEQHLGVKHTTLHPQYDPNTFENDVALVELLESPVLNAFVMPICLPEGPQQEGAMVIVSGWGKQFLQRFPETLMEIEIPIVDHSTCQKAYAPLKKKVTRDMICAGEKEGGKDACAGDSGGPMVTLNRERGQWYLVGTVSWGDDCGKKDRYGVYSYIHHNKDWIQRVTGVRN
MASP-2 (MBL-associated serine protease 2) (O00187, residues 16-686): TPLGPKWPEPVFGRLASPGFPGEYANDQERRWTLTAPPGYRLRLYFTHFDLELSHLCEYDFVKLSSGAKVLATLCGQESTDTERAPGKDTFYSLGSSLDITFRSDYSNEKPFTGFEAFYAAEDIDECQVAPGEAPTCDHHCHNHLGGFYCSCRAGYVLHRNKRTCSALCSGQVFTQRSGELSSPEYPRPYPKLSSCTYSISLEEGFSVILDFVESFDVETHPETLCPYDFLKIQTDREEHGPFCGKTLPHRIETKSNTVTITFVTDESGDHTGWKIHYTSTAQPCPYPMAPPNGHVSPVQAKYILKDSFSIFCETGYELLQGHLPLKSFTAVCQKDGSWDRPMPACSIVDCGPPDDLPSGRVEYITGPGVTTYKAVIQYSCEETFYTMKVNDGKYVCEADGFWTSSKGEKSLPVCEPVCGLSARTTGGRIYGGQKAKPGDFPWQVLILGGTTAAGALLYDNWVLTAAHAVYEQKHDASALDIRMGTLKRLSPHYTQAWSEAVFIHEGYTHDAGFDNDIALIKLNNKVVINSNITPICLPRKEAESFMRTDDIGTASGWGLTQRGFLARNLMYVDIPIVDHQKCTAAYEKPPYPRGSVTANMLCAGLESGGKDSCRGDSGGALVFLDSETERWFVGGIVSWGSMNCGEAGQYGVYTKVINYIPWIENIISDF
MAp19 (O00187, form named): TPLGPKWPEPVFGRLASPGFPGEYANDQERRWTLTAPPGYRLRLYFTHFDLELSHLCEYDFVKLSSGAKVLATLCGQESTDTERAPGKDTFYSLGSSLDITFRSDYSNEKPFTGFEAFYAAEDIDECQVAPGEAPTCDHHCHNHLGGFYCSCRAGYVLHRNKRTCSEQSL

Legend:
[1] = target: MBL-I, the smallest MBL oligomer (approximate Mr 275K) (human) (UniProt P11226); experiment: fractionation of MBL complexes, summary of results
[2] = target: MBL-I, the smallest MBL oligomer (approximate Mr 275K) (human) (UniProt P11226); experiment: fractionation of MBL complexes, Western blots
[3] = target: MBL-I, the smallest MBL oligomer (approximate Mr 275K) (human) (UniProt P11226); experiment: ion-exchange chromatography and sucrose gradient centrifugation of MBL complexes, Western blots of fractions
[4] = target: MBL-II, MBL oligomer (approximate Mr 345K) (human) (UniProt P11226); experiment: fractionation of MBL complexes, summary of results
[5] = target: MBL-II, MBL oligomer (approximate Mr 345K) (human) (UniProt P11226); experiment: fractionation of MBL complexes, Western blots
[6] = target: MBL-II, MBL oligomer (approximate Mr 345K) (human) (UniProt P11226); experiment: ion-exchange chromatography and sucrose gradient centrifugation of MBL complexes, Western blots of fractions

| binding [1] | binding [2] | binding [3] | binding [4] | binding [5] | binding [6] | Substance |
| --- | --- | --- | --- | --- | --- | --- |
| binds | binds | binds | – | – | – | MASP-1 (MBL-associated serine protease 1) (from UniProt P48740 20-699) (enzyme) |
| – | – | – | binds | binds | binds | MASP-2 (MBL-associated serine protease 2) (from UniProt O00187 16-686) (enzyme) |
| binds | binds | binds | – | – | – | MAp19 (from UniProt O00187 16-185) |
